Laboratory results from patent US8133917B2, “Pterostilbene as an agonist for the peroxisome proliferator-activated receptor alpha isoform” (The United States of America as represented by the …, priority 2004, dated 2012).
For at least one compound, name, drawing or mass did not settle the structure.

Experiments:
[1] = target: T1, PPARα (Rattus norvegicus, UniProt P37230); assay: Activation of PPARα in H4IIEC3 cells transfected with PPRE-AB-luciferase reporter gene; type: cell-based; details: for maximal luciferase response compared to control: 30 hr, n=4
T1 construct: endogenous in cells; host or cells: H4IIEC3 rat hepatoma cells
T1 sequence (P37230 1-468): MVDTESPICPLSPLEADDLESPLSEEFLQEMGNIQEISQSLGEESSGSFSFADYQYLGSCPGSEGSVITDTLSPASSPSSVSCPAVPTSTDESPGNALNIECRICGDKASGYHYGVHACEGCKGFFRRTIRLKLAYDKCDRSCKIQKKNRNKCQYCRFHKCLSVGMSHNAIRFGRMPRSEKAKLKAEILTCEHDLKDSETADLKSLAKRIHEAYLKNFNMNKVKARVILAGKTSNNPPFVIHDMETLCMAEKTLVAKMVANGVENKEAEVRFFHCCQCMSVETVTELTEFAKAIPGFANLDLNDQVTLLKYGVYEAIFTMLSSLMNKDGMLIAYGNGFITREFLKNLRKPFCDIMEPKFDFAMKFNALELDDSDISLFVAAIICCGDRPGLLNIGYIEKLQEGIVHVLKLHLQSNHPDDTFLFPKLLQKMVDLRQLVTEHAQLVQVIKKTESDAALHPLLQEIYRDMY

[2] = Hamster feeding study: plasma lipoprotein cholesterol, glucose, weights; type: in vivo, golden Syrian hamsters; details: hamsters
Procedure: Male golden Syrian hamsters (Charles River, Wilmington, Mass.), initial weight ranging from 34-41 g, were fed a powdered stock diet (Rodent Lab Chow 5001, Purina Mills, St. Louis, Mo.) for 7 days. The animals were placed in individual wire-bottom cages in a room kept at 20-22° C., 60% rh and 12 h light and dark cycle. Following the initial 7 day period, 8-10 animals were randomly assigned from a weight sorted list to each of five test diets (α-cellulose control and test substance). Food intake was measured twice each week and body weights were monitored once a week. After 21 days on the treatment diets, the animals were killed, blood was collected and analyzed for total cholesterol by the cholesterol oxidase method and lipoprotein cholesterol, by size exclusion chromatography, as previously described (German et al. 1996. Nutrition Res. 16: 1239-1249). All animal procedures were approved by the Animal Care and Use Committee, Western Regional Research Center, USDA, Albany, Calif. and conformed to the principles in “Guide for the Care and Use of Laboratory Animals” (Committee on Care and Use of Laboratory Animals 1985). Plasma blood glucose was determined using a blood glucose meter (Fast Glucose Meter-Precision Xtra, MediSense, Bedford, Mass., USA). Diets were prepared by dissolving powdered cholesterol into warmed butterfat, followed by the addition of corn and fish oil. The small amounts of test ingredients were dissolved in about 50 ml of ethanol and added to the stirring dry ingredients. The liquid fat was also added to the dry ingredients while stirring. Differences between treatments were tested by two-tailed t-test assuming equal variance, and were considered significant at p<0.05.

COc1cc(/C=C/c2ccc(O)cc2)cc(OC)c1 [pterostilbene]
PPARα activation (luciferase activity) ([1]; 100 μM, H4IIEC3 cells): 33910±788 relative luciferase units
maximal luciferase response compared to control ([1]; 100 μM, H4IIEC3 cells): about 7 fold
maximal luciferase response compared to control ([1]; 300 μM, H4IIEC3 cells): ~14 fold
induction of luciferase activity ([1]; 1 and 10 μM): only minimally induced luciferase activity
agonist / activator of PPARα ([1]; H4IIEC3 cells): acts as an agonist of PPARα
plasma glucose level compared to control group ([2]; 25 mg/kg diet): lowered
LDL/HDL ratio compared to control, significance ([2]; 25 mg/kg diet, two-tailed t-test p<0.05): statistically significantly lower
lowering of plasma cholesterol levels versus freeze-dried tomato and eggplant materials ([2]; plant materials at about 10% of total diet, data not shown): more effective than the plant materials
